In the supplement of paper PMC3047530:
The other results are listed elsewhere or left out. Single values are uncertain, as repeats are few or missing.

System: Geomyces destructans
Assay: growth inhibition relative to DMSO control; higher = stronger growth inhibition
Settings: 10 µM; 15 °C; incubation time 10 days

Row | Compound | growth inhibition [%]
1 | COc1ccc2c3c([nH]c2c1)C(C)=NCC3 | -7.88
2 | CCOP(=S)(OCC)SCCSCC | -16.7
3 | C[C@]12C=CC(=O)C=C1CC[C@@H]1[C@@H]2CC[C@]2(C)C(=O)CC[C@@H]12 | -2.37
4 | CCN1C[C@]2(COC)[C@H](O)C[C@H](OC)[C@@]34[C@@H]5C[C@@]6(O)[C@H](OC(=O)c7ccccc7)[C@@H]5[C@@](OC(C)=O)([C@@H]([C@H](OC)[C@H]23)[C@@H]14)[C@@H](O)[C@@H]6OC | -28.4
5 | CC(=O)CC1CCCCN1 (stereo unspecified) | 8.36
6 | CC[C@@]1(O)C[C@H](O[C@H]2C[C@H](N(C)C)[C@H](O)[C@H](C)O2)c2c(cc3c(c2O)C(=O)c2c(O)ccc(O)c2C3=O)[C@H]1C(=O)OC | -2.83
7 | O=[N+]([O-])c1cc([As](=O)(O)O)ccc1O | 6.25
8 | CC(=O)C1CCC2C3CCC4C[C@H](O)CCC4(C)C3C[C@H](O)C12C (stereo partly drawn) [DIHYDROXY (3alpha,12alpha)PREGNAN-20-ONE] | 3.07
9 | CCc1cccc(CC)c1N(COC)C(=O)CCl | -2.26
10 | CC(=O)Oc1ccc(Cl)c2cccnc12 | 86.6
11 | C=C(C)[C@@H]1[C@H]2OC(=O)[C@@H]1[C@]1(O)C[C@H]3O[C@]34C(=O)O[C@H]2[C@]14C | -29.9
12 | Oc1ccc(Cl)cc1 | -19.4
13 | CNC(=O)Oc1cccc2c1OC(C)(C)O2 | -6.22
14 | COS(C)(=O)=O | -17.6
15 | CC(=O)OC1CCC23C(=O)OC45CCC(C6=CC(=O)OC6)C4(C)CCC2C5CCC3(O)C1 (stereo unspecified) | 2.44
16 | CCCCN(CC)c1c([N+](=O)[O-])cc(C(F)(F)F)cc1[N+](=O)[O-] | -6.22
17 | NC(=O)CN1CCCC1=O | -13.4
18 | CC1(C)C(O)CC(O)C2(C)C1CC(O)C1(C)C2CCC2(C)C(c3ccoc3)CC3OC321 (stereo unspecified) | -11.5
19 | CC1C[C@H]2CC(=O)[C@H]3CCCN4CCC[C@H]2[C@]34C1.[O-][Cl+3]([O-])([O-])O (stereo partly specified) | -14
20 | COc1cc([C@@H]2c3cc4c(c(O)c3C[C@H]3COC(=O)[C@@H]32)OCO4)cc(OC)c1OC [beta-PELTATIN] | 12.4
21 | C[C@]12CC[C@H](O)C[C@H]1CC[C@@H]1[C@@H]2[C@H](O)C[C@]2(C)[C@@H](C3=CC(=O)OC3)CC[C@]12O | -10.4
22 | CC(=O)c1c(O)c(C)c(O)c2c1oc1c(C(C)=O)c(O)c(C)c(O)c12 | -15.8
23 | Clc1ccc(C(OCCN2CCCCC2)c2ccccc2)cc1 (stereo unspecified) | -8.54
24 | CCCSP(=O)(OCC)SCCC | -7.44
25 | NCCc1c[nH]c2ccccc12 | -12.3
26 | C[C@]12CC[C@H](O)C[C@H]1CC[C@@H]1[C@@H]2C[C@@H](O)[C@]2(C)[C@@H](C3=CC(=O)OC3)CC[C@]12O | -3.64

Part of the list above, with tabs.
Row	Compound	growth inhibition [%]
3	C[C@]12C=CC(=O)C=C1CC[C@@H]1[C@@H]2CC[C@]2(C)C(=O)CC[C@@H]12	-2.37
24	CCCSP(=O)(OCC)SCCC	-7.44
